# Results reported in PubChem BioAssay AID2685 (National Center for Advancing Translational Sciences (NCATS), 2010).
# Among all 320,000 compounds or so, about 2,100 (0.66%) were called active. Inconclusive results, whose numbers are uncertain, are shown with a selection of clear calls. The call rests on the fitted dose curve; in most records, active means well fitted inhibition curve with a large enough effect in the signal ratio, with a control signal flat (not every such curve was filed as active); inconclusive means small, poorly fitted or top-dose-only effect, or effect the other way, or a change in a side signal; inactive means flat fitted curve, though single readings scatter; the % refers to the signal ratio. Potencies beside an inconclusive call are fits to weak or partial responses and may not hold up.
# Experiment: qHTS Assay for Lipid Storage Modulators in Drosophila S3 Cells
# Conditions: BODIPY lipid droplet fluorescence, 18-24 h, cells fed with added oleic acid; lipid storage change, negative = inhibition: at 46.1 µM (top of the series) unless noted
# Outline: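 Laser-scanning cytometry quantifies lipid droplet accumulation (500–530 nm total intensity; droplet/cell object ratio) in oleic acid-fed (400 uM added) Drosophila S3 cells treated with a concentration series. 20 uM Triacsin C defined 100% inhibition.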
# On the % scale 0 is the no-effect control and ±100 the full control effect; potency means the concentration at half of the fitted maximal effect.
Compound,"lipid storage change, negative = inhibition",Potency
Cc1ccc(S(=O)(=O)/N=C(\Nc2cc(C)on2)c2ccc(Cl)cc2)cc1,inconclusive: 9.75%,
COc1ccccc1CCc1nnc(N)s1,inconclusive: 152%,
COn1c(-c2ccc(Cl)cc2)nc2ncccc21,,"inconclusive: 5.17 µM [activator, partial curve]"
COc1ccc(S(=O)(=O)Nc2ccc(CC#N)cc2)cc1,,"inconclusive: 29.1 µM [falling, partial curve, poor fit]"
O=C(NCCS(=O)(=O)NCc1ccccc1)c1ccc2c(c1)OCO2,,"inconclusive: 6.51 µM [falling, partial curve, poor fit]"
COc1ccc(OC)c(NC(=O)Cn2c(CCC(=O)O)ccc2-c2cccs2)c1,inconclusive: 13.3%,
CCn1c(COc2ccc(C)cc2)nnc1SCC(=O)Nc1ccc(S(N)(=O)=O)cc1,inconclusive: 35%,
C=CCn1c(SCc2ccc(C(=O)OC)cc2)nnc1-c1sc(N)nc1C,inconclusive: 19.9%,
CCN(CC)CC(=O)NCC1(c2ccccc2)CCCC1,,"inconclusive: 2.91 µM [falling, single point]"
CCCC(=O)Nc1nnc(S(=O)(=O)N2CCCCCC2)s1,inconclusive: 9.49%,
COc1ccc(NC(=O)CSc2nnnn2C2CC2)cc1S(=O)(=O)N1CCOCC1,inconclusive: 12.1%,
COc1ccc(C)cc1NC(=O)c1nn(C)c(C(=O)Nc2cc(C)ccc2OC)c1[N+](=O)[O-],,"inconclusive: 16.4 µM [activator, single point]"
O=C1CCCc2cc3c(cc21)CC1(C3)Cc2cc3c(cc2C1)C(=O)CCC3,,"inconclusive: 29.1 µM [rising, single point]"
Cn1nnnc1SCCNCc1ccccc1OCc1ccccc1Cl,inconclusive: 20%,
O=C(CCn1cccc1)Nc1ccc(F)cc1,inconclusive: -44.8%,
CCOc1ccc(C2C(=O)N(C3CCCCC3)CC(=O)N2CC2CCCO2)cc1OC (centres undefined),inconclusive: 11.4%,
O=C(O)C1CCN(S(=O)(=O)c2ccc(Oc3ccccc3)cc2)CC1,,"inconclusive: 6.51 µM [falling, single point]"
OCC[C@@H]1C[C@H](O)[C@@H](O)[C@]2(Cc3ccccc3CO2)O1,,"inconclusive: 0.058 µM [falling, full curve, poor fit]"
O=C(CN(Cc1cccs1)C(=O)CNS(=O)(=O)c1ccccc1)NCc1ccco1,inconclusive: 29.8%,
O=C(NCC(F)(F)F)c1ccc(S(=O)(=O)N2CCN(C(=O)C3CCCO3)CC2)cc1 (centres undefined),inconclusive: -23.4%,
CCN1CCN(C(=O)CCn2c(=O)c3cccn3c3cccnc32)CC1,,"inconclusive: 5.17 µM [falling, single point]"
CCC(C(=O)NC1CCCC1)N(Cc1ccco1)C(=O)Cn1nnc(-c2ccc(C)cc2)n1 (centres undefined),inconclusive: -119%,
C=CCNC(=O)COC(=O)COc1ccc(Cl)cc1C,inconclusive: -151%,
Cc1ccccc1OCC(=O)OCC(=O)c1ccc(OCc2ccccc2)cc1,,"inconclusive: 0.517 µM [falling, single point]"
Cc1cccc(NC(=O)c2ccc(S(=O)(=O)N(C)C)cc2)n1,,"inconclusive: 5.17 µM [activator, partial curve]"

# Single records (already shown).
# O=C(O)C1CCN(S(=O)(=O)c2ccc(Oc3ccccc3)cc2)CC1 in the list: Potency: inconclusive: 6.51 µM [falling, single point]
# COc1ccccc1CCc1nnc(N)s1 in the list: lipid storage change, negative = inhibition: inconclusive: 152%
# COc1ccc(S(=O)(=O)Nc2ccc(CC#N)cc2)cc1 in the list: Potency: inconclusive: 29.1 µM [falling, partial curve, poor fit]

# Later entries

Compound,"lipid storage change, negative = inhibition",Potency
CN(C)S(=O)(=O)c1ccc(NC(=O)CN2CCOCC2)cc1,inconclusive: -18.9%,
CCCNC(=O)CN1CCN(c2cc3ccccc3c(Cl)n2)CC1,inconclusive: -72.4%,
O=C(/C=C/c1ccccc1)NCC(=O)N/N=C\c1cccnc1,,"inconclusive: 0.58 µM [rising, full curve, poor fit]"
CC(CCc1ccccc1)NC(=O)CSc1ccccn1 (centres undefined),inconclusive: 30%,
Cc1cccc(NC(=O)c2ccc(S(=O)(=O)C(F)F)cc2)c1C,,"inconclusive: 4.11 µM [activator, partial curve, poor fit]"
COc1ccc(C(=O)Nc2sc3c(c2C(=O)NCc2ccco2)CCCC3)cc1OC,,"inconclusive: 11.6 µM [activator, partial curve]"
Cc1cccc(N(CC(=O)Nc2ccccc2F)S(C)(=O)=O)c1,,active: 6.51 µM
Cc1cc(C)cc(NC(=O)CSc2nc(N)c(NC(=O)c3ccc(Br)o3)c(=O)[nH]2)c1,inconclusive: -19.6%,
COc1cc(/C=N/n2cnnc2)ccc1OC(=O)c1ccco1,inconclusive: -1.85%,
COc1ccc(Nc2nc3ccccc3s2)cc1,inconclusive: -26%,
Cc1ccc(C(=O)NCC(c2ccco2)N2CCc3ccccc32)cc1 (centres undefined),,"inconclusive: 5.8 µM [activator, partial curve]"
CN1CCc2nc(NC(=O)c3cccc(OC(F)F)c3)sc2C1,inconclusive: 1.86%,
C=CCNC(=S)Nc1sc2c(c1C(=O)OCC)CC(C)(CC)OC2 (centres undefined),,"inconclusive: 3.66 µM [falling, partial curve]"
CCn1cc(C(=O)NC(C)C2CC3CCC2C3)cn1 (centres undefined),inconclusive: -45.9%,
CC(C)CC(COCc1cccc(C(F)(F)F)c1)N1CCN(C(=O)c2cccc(C(F)(F)F)c2)CCC1=O (centres undefined),inconclusive: 10.3%,
CC(NC(=O)C(=O)N/N=C/c1ccccc1)c1ccccc1 (centres undefined),inconclusive: -39%,
Cc1nc2ccccc2c2oc(C(=O)N3CCCC(C)C3)cc12 (centres undefined),inconclusive: -62%,
Cc1cc(C)nc(NS(=O)(=O)c2ccc(NC(=O)CCCN3C(=O)c4ccccc4C3=O)cc2)n1,inconclusive: -2.33%,
Cc1ccc(CNC(=O)C2(S(=O)(=O)c3ccccc3)CC=CC2)cc1,inconclusive: -34%,
Cc1cccc(N=C2NC(=O)/C(=C\c3cccs3)S2)c1,,"inconclusive: 29.1 µM [activator, single point]"
COc1ccccc1/C=C1\N=C(C(C)(C)C)OC1=O,inconclusive: 36.3%,
Cc1cc(Cl)ccc1NC(=O)C1CCCN1C(=O)c1cccs1 (centres undefined),inconclusive: 10.5%,
O=C(Nc1cnn(Cc2ccc(Cl)cc2)c1)c1ccc([N+](=O)[O-])cc1,inconclusive: -32.7%,
Cc1cc(C)n2nc(C(=O)NCc3cccc(C(F)(F)F)c3)nc2n1,,"inconclusive: 29.1 µM [rising, single point]"
